What follows is the remainder of the data, with few or none of the targets with a hit. The data scatter; read single values as rough. Only a part is listed here, and it is no random draw.
compound: COC(=O)/C=C/c1ccccc1 [methyl cinnamate]; assay: log2 ratio of iodoacetamide-alkyne labeling of the cysteine site, DMSO over compound (competition); higher = stronger covalent engagement of the cysteine by the compound, active = 1 or more; details: 500 µM; treatment time 1 h; system: HEK293T cell lysate
Summary of the method: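 Reporter intensities give each cysteine's log2 competition ratio as the mean of control channels over the mean of compound channels. The samples were HEK293T lysate (2 mg/mL) given vehicle or electrophile (500 µM, 1 h, ambient temperature), then iodoacetamide alkyne (1 h), followed by click coupling to sCIP-TMT reagents, pooling, trypsin digestion overnight at 37 °C, streptavidin enrichment, acid elution, Orbitrap Eclipse LC-MS/MS with FAIMS and FragPipe quantification. Duplicate channels and three replicates were run, and cysteines quantified in only one replicate were discarded.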

Amino acid sequences for entries named in this document (tags omitted). A change or cut given only in a name is not applied to a line headed by its entry.
UniProt Q9HCS7: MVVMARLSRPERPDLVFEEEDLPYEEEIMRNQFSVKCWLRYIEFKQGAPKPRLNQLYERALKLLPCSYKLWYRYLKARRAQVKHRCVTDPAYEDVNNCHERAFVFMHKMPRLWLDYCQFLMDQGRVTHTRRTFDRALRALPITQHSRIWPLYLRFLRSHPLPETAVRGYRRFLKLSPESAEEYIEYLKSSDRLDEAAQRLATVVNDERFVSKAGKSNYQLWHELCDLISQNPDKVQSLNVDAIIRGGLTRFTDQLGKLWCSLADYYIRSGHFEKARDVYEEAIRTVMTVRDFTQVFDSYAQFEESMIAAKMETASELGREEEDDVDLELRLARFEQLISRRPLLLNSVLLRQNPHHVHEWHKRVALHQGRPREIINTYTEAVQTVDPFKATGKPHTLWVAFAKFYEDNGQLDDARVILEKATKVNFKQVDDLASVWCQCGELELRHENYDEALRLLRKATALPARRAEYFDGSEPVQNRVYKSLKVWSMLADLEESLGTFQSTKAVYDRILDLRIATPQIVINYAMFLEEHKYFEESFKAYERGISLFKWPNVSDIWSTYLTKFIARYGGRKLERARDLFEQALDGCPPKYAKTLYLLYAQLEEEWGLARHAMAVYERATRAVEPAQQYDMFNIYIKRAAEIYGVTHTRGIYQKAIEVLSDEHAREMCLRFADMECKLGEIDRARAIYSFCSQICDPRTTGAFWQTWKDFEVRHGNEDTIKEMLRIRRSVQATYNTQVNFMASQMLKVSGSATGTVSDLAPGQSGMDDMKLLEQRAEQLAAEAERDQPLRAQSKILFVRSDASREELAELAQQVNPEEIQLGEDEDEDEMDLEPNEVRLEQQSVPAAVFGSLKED
UniProt Q9NQZ5: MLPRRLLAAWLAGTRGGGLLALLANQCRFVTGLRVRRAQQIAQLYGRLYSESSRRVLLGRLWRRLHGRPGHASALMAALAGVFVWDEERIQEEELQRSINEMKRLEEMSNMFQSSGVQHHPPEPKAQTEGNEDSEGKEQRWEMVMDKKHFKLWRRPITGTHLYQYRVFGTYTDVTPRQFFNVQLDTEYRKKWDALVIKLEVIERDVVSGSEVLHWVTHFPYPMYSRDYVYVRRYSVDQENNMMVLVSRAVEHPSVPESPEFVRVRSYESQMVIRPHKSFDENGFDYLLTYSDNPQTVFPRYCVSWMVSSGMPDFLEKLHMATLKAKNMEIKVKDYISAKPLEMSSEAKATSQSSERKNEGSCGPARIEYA
UniProt Q9HAV4: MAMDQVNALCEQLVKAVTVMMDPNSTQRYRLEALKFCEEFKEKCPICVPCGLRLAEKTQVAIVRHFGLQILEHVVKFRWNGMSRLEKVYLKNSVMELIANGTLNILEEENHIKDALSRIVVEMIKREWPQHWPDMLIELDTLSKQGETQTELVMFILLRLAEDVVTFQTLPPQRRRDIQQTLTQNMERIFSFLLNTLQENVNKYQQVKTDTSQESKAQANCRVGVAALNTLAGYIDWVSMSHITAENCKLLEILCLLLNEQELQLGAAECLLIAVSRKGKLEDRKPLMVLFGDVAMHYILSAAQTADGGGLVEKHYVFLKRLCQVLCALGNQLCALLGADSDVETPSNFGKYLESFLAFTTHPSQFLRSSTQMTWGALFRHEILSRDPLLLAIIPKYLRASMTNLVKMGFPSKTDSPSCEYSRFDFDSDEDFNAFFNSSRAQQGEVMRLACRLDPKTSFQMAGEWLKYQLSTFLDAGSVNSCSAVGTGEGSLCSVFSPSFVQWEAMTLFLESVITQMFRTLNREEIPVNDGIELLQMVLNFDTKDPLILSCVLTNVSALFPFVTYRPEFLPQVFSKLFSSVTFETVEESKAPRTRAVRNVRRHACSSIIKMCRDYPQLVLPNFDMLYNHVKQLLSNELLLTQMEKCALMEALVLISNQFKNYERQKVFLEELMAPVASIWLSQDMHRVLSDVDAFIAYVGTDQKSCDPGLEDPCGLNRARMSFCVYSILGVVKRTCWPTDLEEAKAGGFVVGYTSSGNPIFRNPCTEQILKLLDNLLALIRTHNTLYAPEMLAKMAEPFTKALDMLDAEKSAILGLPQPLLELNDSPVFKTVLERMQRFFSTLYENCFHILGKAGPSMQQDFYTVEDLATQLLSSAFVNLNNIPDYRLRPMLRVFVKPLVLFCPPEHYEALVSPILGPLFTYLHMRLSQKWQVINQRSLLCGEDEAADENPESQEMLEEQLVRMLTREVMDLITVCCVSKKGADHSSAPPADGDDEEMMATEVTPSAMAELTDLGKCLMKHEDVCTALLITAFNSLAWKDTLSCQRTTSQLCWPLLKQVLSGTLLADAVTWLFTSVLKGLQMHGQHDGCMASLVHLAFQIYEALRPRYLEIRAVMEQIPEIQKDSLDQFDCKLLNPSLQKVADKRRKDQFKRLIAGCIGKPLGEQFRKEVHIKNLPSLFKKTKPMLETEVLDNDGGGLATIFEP
UniProt Q9NR31: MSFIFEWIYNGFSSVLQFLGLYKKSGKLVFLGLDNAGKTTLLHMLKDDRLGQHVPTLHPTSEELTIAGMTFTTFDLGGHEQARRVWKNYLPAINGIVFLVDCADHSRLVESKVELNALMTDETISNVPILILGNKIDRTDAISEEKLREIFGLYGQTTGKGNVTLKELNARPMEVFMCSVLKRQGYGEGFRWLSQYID
UniProt Q9NSE4: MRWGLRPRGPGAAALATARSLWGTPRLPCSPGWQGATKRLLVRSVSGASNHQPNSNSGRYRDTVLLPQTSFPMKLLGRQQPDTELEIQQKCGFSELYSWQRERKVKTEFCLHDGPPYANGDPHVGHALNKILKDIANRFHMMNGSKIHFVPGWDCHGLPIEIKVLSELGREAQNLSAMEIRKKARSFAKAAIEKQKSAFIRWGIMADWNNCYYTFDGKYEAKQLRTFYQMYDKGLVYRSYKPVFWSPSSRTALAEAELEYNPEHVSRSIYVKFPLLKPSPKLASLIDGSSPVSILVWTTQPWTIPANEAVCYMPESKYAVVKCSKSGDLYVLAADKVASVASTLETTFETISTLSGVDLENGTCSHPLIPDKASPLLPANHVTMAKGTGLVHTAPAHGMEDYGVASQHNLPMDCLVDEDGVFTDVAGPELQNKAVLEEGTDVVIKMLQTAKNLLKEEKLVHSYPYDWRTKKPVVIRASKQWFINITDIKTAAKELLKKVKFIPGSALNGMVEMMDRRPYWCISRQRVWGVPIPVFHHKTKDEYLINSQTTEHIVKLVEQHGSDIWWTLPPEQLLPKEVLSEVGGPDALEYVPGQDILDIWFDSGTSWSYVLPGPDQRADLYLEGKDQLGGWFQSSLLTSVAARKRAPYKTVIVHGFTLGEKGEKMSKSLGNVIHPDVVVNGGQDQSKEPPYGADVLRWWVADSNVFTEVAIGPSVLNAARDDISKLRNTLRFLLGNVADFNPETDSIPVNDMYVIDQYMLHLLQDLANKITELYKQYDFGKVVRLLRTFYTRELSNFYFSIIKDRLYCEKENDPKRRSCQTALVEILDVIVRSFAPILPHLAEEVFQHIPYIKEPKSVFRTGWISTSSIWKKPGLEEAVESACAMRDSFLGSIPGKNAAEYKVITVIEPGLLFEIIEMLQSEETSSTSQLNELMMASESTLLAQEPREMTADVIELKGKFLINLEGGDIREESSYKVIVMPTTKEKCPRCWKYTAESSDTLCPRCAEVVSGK
UniProt Q9NR56: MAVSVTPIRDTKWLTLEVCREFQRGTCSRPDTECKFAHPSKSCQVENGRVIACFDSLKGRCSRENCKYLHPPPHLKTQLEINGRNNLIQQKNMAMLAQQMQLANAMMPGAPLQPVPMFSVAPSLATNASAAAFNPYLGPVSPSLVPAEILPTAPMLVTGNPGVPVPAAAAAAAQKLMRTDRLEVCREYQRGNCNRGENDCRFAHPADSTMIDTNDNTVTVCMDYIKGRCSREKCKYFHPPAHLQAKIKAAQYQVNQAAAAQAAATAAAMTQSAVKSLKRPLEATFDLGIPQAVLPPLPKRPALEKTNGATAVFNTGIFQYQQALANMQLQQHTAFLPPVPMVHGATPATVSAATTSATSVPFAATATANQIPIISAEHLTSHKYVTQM
UniProt Q9NQX3: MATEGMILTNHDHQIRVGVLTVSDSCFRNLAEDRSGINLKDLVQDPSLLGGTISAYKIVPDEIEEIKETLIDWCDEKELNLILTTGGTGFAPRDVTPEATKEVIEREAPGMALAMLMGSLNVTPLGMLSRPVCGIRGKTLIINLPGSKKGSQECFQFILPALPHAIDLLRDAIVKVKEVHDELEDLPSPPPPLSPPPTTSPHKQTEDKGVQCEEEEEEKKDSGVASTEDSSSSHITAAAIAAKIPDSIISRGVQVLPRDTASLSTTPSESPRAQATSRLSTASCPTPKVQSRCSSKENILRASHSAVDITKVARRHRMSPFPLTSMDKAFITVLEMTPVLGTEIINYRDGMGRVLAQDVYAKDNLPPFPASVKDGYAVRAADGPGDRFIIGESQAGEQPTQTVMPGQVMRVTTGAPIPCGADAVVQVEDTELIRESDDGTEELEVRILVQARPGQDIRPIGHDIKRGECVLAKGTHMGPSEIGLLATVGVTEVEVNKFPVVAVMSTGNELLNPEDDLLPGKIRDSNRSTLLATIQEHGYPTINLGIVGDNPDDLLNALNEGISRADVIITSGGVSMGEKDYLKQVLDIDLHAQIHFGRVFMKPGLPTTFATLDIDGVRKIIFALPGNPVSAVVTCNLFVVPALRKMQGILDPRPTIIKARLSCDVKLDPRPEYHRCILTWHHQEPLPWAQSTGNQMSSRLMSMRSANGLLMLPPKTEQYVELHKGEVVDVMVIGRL
UniProt Q9NRL3: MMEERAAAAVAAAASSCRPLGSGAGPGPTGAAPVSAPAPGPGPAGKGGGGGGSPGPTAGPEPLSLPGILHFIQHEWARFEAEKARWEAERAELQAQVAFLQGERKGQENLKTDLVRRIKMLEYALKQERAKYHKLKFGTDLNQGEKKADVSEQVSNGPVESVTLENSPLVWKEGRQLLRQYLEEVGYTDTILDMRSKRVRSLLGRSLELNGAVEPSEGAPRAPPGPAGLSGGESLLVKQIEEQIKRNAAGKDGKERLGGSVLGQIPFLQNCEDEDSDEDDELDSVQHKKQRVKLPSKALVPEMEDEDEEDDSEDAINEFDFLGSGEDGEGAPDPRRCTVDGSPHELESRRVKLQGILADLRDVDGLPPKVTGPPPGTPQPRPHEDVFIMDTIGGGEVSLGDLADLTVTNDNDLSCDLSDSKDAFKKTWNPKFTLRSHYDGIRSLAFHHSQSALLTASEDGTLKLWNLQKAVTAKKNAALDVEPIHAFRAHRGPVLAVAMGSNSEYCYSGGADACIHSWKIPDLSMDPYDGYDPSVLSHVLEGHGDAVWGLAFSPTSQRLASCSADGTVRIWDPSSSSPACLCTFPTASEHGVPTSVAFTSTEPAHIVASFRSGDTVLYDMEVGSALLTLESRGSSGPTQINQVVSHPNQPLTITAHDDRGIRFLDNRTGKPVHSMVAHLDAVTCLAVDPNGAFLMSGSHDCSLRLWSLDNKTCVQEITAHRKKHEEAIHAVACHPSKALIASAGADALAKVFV
UniProt Q9H410: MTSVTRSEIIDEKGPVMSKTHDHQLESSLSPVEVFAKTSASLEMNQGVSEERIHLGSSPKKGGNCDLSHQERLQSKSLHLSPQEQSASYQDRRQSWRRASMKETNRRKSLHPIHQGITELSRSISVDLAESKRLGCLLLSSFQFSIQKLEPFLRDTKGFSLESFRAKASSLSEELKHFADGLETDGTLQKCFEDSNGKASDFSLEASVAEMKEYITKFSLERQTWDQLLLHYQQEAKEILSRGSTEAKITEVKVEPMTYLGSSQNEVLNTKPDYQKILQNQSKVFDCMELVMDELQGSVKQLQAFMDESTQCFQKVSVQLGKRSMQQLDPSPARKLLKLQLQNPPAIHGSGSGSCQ
UniProt Q9NPI1: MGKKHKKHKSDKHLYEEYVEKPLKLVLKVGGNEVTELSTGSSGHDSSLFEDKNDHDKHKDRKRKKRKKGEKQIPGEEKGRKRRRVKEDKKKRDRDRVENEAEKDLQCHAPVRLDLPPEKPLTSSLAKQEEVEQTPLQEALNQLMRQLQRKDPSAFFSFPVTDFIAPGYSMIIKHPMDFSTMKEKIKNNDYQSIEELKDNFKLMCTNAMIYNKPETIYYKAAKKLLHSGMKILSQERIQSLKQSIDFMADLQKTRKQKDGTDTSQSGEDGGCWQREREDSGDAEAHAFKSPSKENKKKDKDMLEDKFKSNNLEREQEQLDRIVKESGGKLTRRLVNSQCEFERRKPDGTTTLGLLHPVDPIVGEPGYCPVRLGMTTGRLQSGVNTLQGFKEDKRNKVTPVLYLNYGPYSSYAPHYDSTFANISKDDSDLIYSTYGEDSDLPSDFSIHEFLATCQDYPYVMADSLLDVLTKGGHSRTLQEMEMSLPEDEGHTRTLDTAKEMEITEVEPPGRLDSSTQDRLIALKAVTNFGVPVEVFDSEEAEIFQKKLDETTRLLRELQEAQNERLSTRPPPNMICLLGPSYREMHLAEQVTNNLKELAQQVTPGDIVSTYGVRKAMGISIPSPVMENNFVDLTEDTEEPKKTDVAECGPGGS

log2 ratio of iodoacetamide-alkyne labeling, inactive:
UniProt Q9H3N1_C106 -0.36
WDR54 C18 (UniProt Q9H977) 0.0845
OSBPL3 C520 (UniProt Q9H4L5) -0.0227
XAB2 C86 (UniProt Q9HCS7) -0.309
UniProt Q9HBK9_C334 0.231
STARD7 C362 (UniProt Q9NQZ5) 0.444
ATG3 C50 (UniProt Q9NT62) -0.0371
UPF2 C578 (UniProt Q9HAU5) -0.198
HEATR1 C49 (UniProt Q9H583) -0.0658
FARSB C362 (UniProt Q9NSD9) 0.081
XPO5 C1025 (UniProt Q9HAV4) 0.313
SAR1A C178 (UniProt Q9NR31) 0.183
BAZ1A C898 (UniProt Q9NRL2) 0.37
MDN1 C43 (UniProt Q9NU22) 0.393
MDN1 C1839 (UniProt Q9NU22) -0.2
SMARCAD1 C106 (UniProt Q9H4L7) 0.0476
EML4 C82 (UniProt Q9HC35) -0.148
IARS2 C155 (UniProt Q9NSE4) 0.0867
LRRC40 C54 (UniProt Q9H9A6) 0.192
CXorf56 C96 (UniProt Q9H5V9) -0.106
MBNL1 C34 (UniProt Q9NR56) 0.254
MRPL46 C52 (UniProt Q9H2W6) -0.163
DDX21 C161 (UniProt Q9NR30) 0.154
CHD8 C752 (UniProt Q9HCK8) -0.0596
BAZ1A C547 (UniProt Q9NRL2) 0.106
GPHN C26 (UniProt Q9NQX3) 0.0339
STRN4 C562 (UniProt Q9NRL3) 0.244
DSN1 C287 (UniProt Q9H410) -0.149
BIRC6 C613 (UniProt Q9NR09) 0.363
BRD7 C271 (UniProt Q9NPI1) 0.451
OPA3 C164 (UniProt Q9H6K4) 0.276
HELLS C836 (UniProt Q9NRZ9) 0.0954
XPO5 C1052 (UniProt Q9HAV4) -0.00576
NOL6 C1034 (UniProt Q9H6R4) 0.159
RAVER2 C362 (UniProt Q9HCJ3) 0.276
UniProt Q9H993_C398 -0.012
MRPS30 C316 (UniProt Q9NP92) 0.203

Pulled one by one from the list above (two):
log2 ratio of iodoacetamide-alkyne labeling, inactive:
FARSB C362 (UniProt Q9NSD9) 0.081
HELLS C836 (UniProt Q9NRZ9) 0.0954

— the supplement of paper PMC11006884
